Measurements taken from patent US20020165208A1, “Compositions and methods relating to hypertension” (priority 2000, published 2002).
Some of these results come from one statement about several compounds together.

Test system: male Sprague-Dawley rats
Assay: Mean arterial blood pressure of androgen-treated rats
Type: in vivo, rat
Conditions: male Sprague-Dawley rats administered androgen

C[C@]12CC[C@H]3[C@@H](CCC4=CC(=O)CC[C@@]43C)[C@@H]1CC[C@@H]2O [TST, testosterone]
Increase in mean arterial blood pressure: 35-40 mm of Hg
